Results as given in PMC7293277.
Construct, isoform or probe ends are uncertain for at least one entry. For some of these results: At least one verdict rests on a figure or table, not on a statement of the authors. Protein sequences can lack the tags named with them.

Legend:
[1] = target: T1, RAG1 nonamer binding domain (NBD) (UniProt P15919); assay: EMSA; settings: no inhibitor, 5 mM Mg2+; EMSA and BLI: 10 mM Tris-HCl pH 8.0, 5 mM MgCl2, 2 mM DTT, 6% glycerol, 100 mM NaCl; EMSA at room temperature, 30 min (CD) or 20 min (NBD), 5% native PAGE 1X TBE; recombinant protein; protein details: 6xHis; label: 5' 32P on one strand
T1 sequence (looked up, limits assumed): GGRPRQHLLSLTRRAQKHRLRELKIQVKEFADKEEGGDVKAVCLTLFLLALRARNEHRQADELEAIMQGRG

[2] = target: T2, RAG1 central domain (CD) (UniProt P15919); assay: EMSA; settings: no inhibitor, 5 mM Mg2+; EMSA and BLI: 10 mM Tris-HCl pH 8.0, 5 mM MgCl2, 2 mM DTT, 6% glycerol, 100 mM NaCl; EMSA at room temperature, 30 min (CD) or 20 min (NBD), 5% native PAGE 1X TBE; recombinant protein; protein details: MBP; label: 5' 32P on one strand
T2 sequence (looked up, limits assumed): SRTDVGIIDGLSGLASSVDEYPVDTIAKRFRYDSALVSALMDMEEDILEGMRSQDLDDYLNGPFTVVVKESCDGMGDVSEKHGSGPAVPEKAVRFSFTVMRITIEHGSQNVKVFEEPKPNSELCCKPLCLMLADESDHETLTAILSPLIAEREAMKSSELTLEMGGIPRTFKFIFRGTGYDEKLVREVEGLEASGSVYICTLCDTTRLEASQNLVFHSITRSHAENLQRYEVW

[3] = target: T1, RAG1 nonamer binding domain (NBD); assay: BLI; settings: no inhibitor, 5 mM Mg2+; recombinant protein; protein details: 6xHis
[4] = target: T2, RAG1 central domain (CD); assay: BLI; settings: no inhibitor, 5 mM Mg2+; recombinant protein; protein details: MBP

## GATCAGCTGATAGCTACCACAGTGCTACAGACTGGAACAAAAACCCTGCT / TAGCAGGGTTTTTGTTCCAGTCTGTAGCACTGTGGTAGCTATCAGCTGAT [12RSS (AKN1/AKN2)]
[1]
  binding result: binds
[2]
  binding result: binds

## GATCAGCTGATAGCTACCACAGTGCTACAGACTGGAACAAAAACCCTGCT / TAGCAGGGTTTTTGTTCCAGTCTGTAGCACTGTGGTAGCTATCAGCTGAT [biotinylated 12RSS (AKN1)]
[3]
  Kd: 4.6 nM
[4]
  Kd: 1.5 nM
